SMILES strings stand for the structures. The list does not hold the whole screen: it is rich in T/C values a quarter to a half above the control, in often repeated tests (any T/C) and in doses without a T/C. Other doses and runs of a compound stand elsewhere. T/C: endpoint of the treated group in % of that of the vehicle group. Some entries give survivors of the animals treated and no T/C: the source files T/C as zero there, which appears to mark a toxic dose or a test without result, not a measured value. Some doses without a T/C left all or most animals alive at the check, yet need not have been tolerated: the source hardly ever lists a survival T/C far under the control, and the zero likely stands for such cases as well. Counts of survivors are from the toxicity check (mostly the fifth day) where no day follows; animals may have died later. Schedules are NCI's codes, taken here to give the interval after Q, in days (D) or hours (H), and the number of doses after X. Some molecules as drawn cover several salts, stereoisomers or complexes of the source; a dose is that of the sample tested. Where survival is the endpoint, this PubChem deposit counts one and a half times the control or more as active, and values a quarter to a half above the control carry no call in these data; other NCI protocols may use other cut-offs. Some entries hold several experiments; the values are given in rising order.

This passage reports survivor count and T/C results from PubChem BioAssay AID328 (DTP/NCI, 2004).

The test has as its system BDF1 mice, P388 leukemia ip, median survival T/C. Description: NCI In Vivo Anticancer Drug Screen. Data for tumor model P388 Leukemia (intraperitoneal) in B6D2F1 (BDF1) mice. The note with it: T/C endpoint: median survival time, higher T/C = longer survival. The method in brief:
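Antitumour effect was judged in vivo: survival in drug-treated mice, normalised to that of vehicle-dosed controls, gives the reported T/C.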

Setting [1] is: dose: 100.0 mg/kg/injection, schedule: Q01DX009 (ip), vehicle: saline with Tween-80.
Where [2] appears, read: dose: 200.0 mg/kg/injection, schedule: Q01DX009 (ip), vehicle: saline with Tween-80.
[3] abbreviates: dose: 200.0 mg/kg/injection, schedule: Q01DX009 (ip), vehicle: Klucel (hydroxypropylcellulose) (HPC).
The mark [4] stands for this setting: dose: 200.0 mg/kg/injection, schedule: Q01DX009 (ip), vehicle: saline.
The mark [5] stands for this setting: dose: 200.0 mg/kg/injection, schedule: Q04DX003 (ip), vehicle: saline.
Where [6] appears, read: dose: 50.0 mg/kg/injection, schedule: Q04DX003 (ip), vehicle: saline.
Setting [7] is: dose: 100.0 mg/kg/injection, schedule: Q04DX003 (ip), vehicle: saline.
The mark [8] stands for this setting: dose: 400.0 mg/kg/injection, schedule: Q04DX003 (ip), vehicle: saline.
Where [9] appears, read: dose: 50.0 mg/kg/injection, schedule: Q01DX009 (ip), vehicle: saline.
Setting [10] is: dose: 400.0 mg/kg/injection, schedule: Q01DX009 (ip), vehicle: saline with Tween-80.
Setting [11] is: dose: 400.0 mg/kg/injection, schedule: Q04DX003 (ip), vehicle: saline with Tween-80.
The mark [12] stands for this setting: dose: 12.5 mg/kg/injection, schedule: Q04DX003 (ip), vehicle: saline.
The mark [13] stands for this setting: dose: 50.0 mg/kg/injection, schedule: Q01DX009 (ip), vehicle: saline with Tween-80.

Regarding `CCCCCC1=NC(C)(C(=O)OC)OO1` (configuration not stated), under setting [1], the survivor count is recorded as 6 of 6.
In the case of `O=COC1CC2CC1C1CCCC21` (configuration not stated), the survivor count under setting [2] is listed as 4 of 6.
As for `C[C@]12CCC(=O)C=C1CC[C@H]1[C@@H]3CC[C@](O)(C(=O)CO)[C@@]3(C)C[C@H](O)[C@@]12F`, the survivor count is 5 of 6 under setting [3] and 6 of 6 (dose: 400.0 mg/kg/injection, schedule: Q01DX009 (ip), vehicle: Klucel (hydroxypropylcellulose) (HPC)).
For `S=C(S)NCCNC(=S)S`, the T/C is, setting by setting: (dose: 75.0 mg/kg/injection, schedule: Q01DX009 (ip), vehicle: saline) 125 % of control; (dose: 132.0 mg/kg/injection, schedule: Q01DX009 (ip), vehicle: saline) 141 % of control; (dose: 135.0 mg/kg/injection, schedule: Q04DX003 (ip), vehicle: saline) 145 % of control; under setting [4], 125 % of control; under setting [5], 100, 109, 127, 145 % of control; (dose: 400.0 mg/kg/injection, schedule: Q01DX009 (ip), vehicle: saline) 130 % of control. Also, the survivor count is recorded as 6 of 6 under setting [4] and 5 of 6 (dose: 265.0 mg/kg/injection, schedule: Q01DX009 (ip), vehicle: saline).
Regarding `O=C1C(NCCO)=C(N2CC2)C(=O)C(NCCO)=C1N1CC1`, the survivor count (dose: 0.75 mg/kg/injection, schedule: Q01DX009 (ip), vehicle: saline) was 6 of 6 and the survivor count (dose: 1.5 mg/kg/injection, schedule: Q01DX009 (ip), vehicle: saline) is 6 of 6.
`COc1cccc(/C=C/[N+](=O)[O-])c1OC`: the T/C was 125 % of control (dose: 12.5 mg/kg/injection, schedule: Q01DX009 (ip), vehicle: Klucel (hydroxypropylcellulose) (HPC)); 142 % of control (dose: 16.0 mg/kg/injection, schedule: Q01DX009 (ip), vehicle: Klucel (hydroxypropylcellulose) (HPC)); 125 and 142 % of control (dose: 25.0 mg/kg/injection, schedule: Q01DX009 (ip), vehicle: Klucel (hydroxypropylcellulose) (HPC)); 140 % of control (dose: 25.0 mg/kg/injection, schedule: Q01DX010 (ip), vehicle: carboxymethylcellulose (CMC)); 132 % of control under setting [7]; 130 % of control under setting [5]. The survivor count runs as follows: (dose: 50.0 mg/kg/injection, schedule: Q01DX009 (ip), vehicle: Klucel (hydroxypropylcellulose) (HPC)) 6 of 6; (dose: 50.0 mg/kg/injection, schedule: Q01DX010 (ip), vehicle: carboxymethylcellulose (CMC)) 5 of 6; under setting [6], 6 of 6; (dose: 100.0 mg/kg/injection, schedule: Q01DX010 (ip), vehicle: carboxymethylcellulose (CMC)) 0 of 6; (dose: 200.0 mg/kg/injection, schedule: Q01DX010 (ip), vehicle: carboxymethylcellulose (CMC)) 0 of 6; under setting [8], 3 of 6.
In the case of `COC1=C(C)C(=O)c2c(c(COC(N)=O)c3n2CC2C3N2C)C1=O` (configuration not stated), the survivor count is 6 of 6 (dose: 3.13 mg/kg/injection, schedule: Q01DX009 (ip), vehicle: saline sonified) and 6 of 6 (dose: 4.6 mg/kg/injection, schedule: Q01DX009 (ip), vehicle: saline sonified).
As to `CC([OH2+])CNCCN.CC([OH2+])CNCCN.[Ni+2].[O-][Cl+3]([O-])([O-])[O-]` (configuration not stated), the survivor count reads like this: under setting [9], 6 of 6; (dose: 100.0 mg/kg/injection, schedule: Q01DX009 (ip), vehicle: saline) 3 of 6; under setting [4], 0 of 6.
Regarding `Cc1nc2ccccc2c(Cl)c1C`, the survivor count under setting [3] is 5 of 6.
On to `CSc1nc2n(Cc3c[nH]c(=O)[nH]c3=O)cc(C)cc-2c(=O)n1`, for which the survivor count (dose: 400.0 mg/kg/injection, schedule: Q01DX001 (ip), vehicle: saline with Tween-80) is on record as 2 of 6.
Take `O=C(CCN1CCCCC1)c1ccccc1`: the survivor count by setting is: under setting [9], 3 of 6; under setting [6], 3 of 6; under setting [7], 0 of 6.
Take `C=CCSc1ncnc2c1ncn2C1OC(CO)C(O)C1O` (configuration not stated): the survivor count under setting [2] was 4 of 6 and the survivor count under setting [10] was 4 of 6.
`c1cc2cccc3c2c(c1)c1sc2c4cccc5cccc(c54)c2c31`: the survivor count under setting [11] is on record as 6 of 6.
Consider `CC(C)(C)C[CH2][Hg][Cl]`, for which the T/C under setting [12] is 130 % of control.
Consider `Nc1nc(=S)c2[nH]c(N=Nc3ccc(S(=O)(=O)O)cc3)nc2[nH]1`, for which the T/C is 125 % of control (dose: 6.25 mg/kg/injection, schedule: Q04DX003 (ip), vehicle: saline); 131 % of control under setting [12]; 141 % of control (dose: 25.0 mg/kg/injection, schedule: Q04DX003 (ip), vehicle: saline); 131 % of control under setting [6]. The survivor count under setting [7] is on record as 5 of 6.
On to `S=c1cc(-c2ccccc2)ss1`, for which the survivor count was 2 of 6 under setting [13], 6 of 6 under setting [1], 6 of 6 under setting [2] and 4 of 6 under setting [10]. In addition, the T/C under setting [11] is 130 % of control.
For the molecule `CNc1ccc([N+](=O)[O-])cc1C(=O)OC`, under setting [13], the survivor count is on record as 6 of 6.
Take `CN(C)C(=S)N=Nc1c(O)[nH]c2ccccc12`: the survivor count by setting is: (dose: 6.25 mg/kg/injection, schedule: Q01DX009 (ip), vehicle: saline with Tween-80) 6 of 6; (dose: 25.0 mg/kg/injection, schedule: Q01DX009 (ip), vehicle: saline with Tween-80) 6 of 6; (dose: 50.0 mg/kg/injection, schedule: Q01DX009 (ip), vehicle: saline sonified) 6 of 6; (dose: 100.0 mg/kg/injection, schedule: Q01DX009 (ip), vehicle: saline sonified) 6 of 6; (dose: 200.0 mg/kg/injection, schedule: Q01DX009 (ip), vehicle: saline sonified) 6 of 6; (dose: 200.0 mg/kg/injection, schedule: Q04DX003 (ip), vehicle: saline sonified) 6 of 6.
On to `CSc1nc2nc(Cl)c(Cl)nc2[nH]1`, for which the survivor count is 6 of 6 (dose: 12.5 mg/kg/injection, schedule: Q01DX009 (ip), vehicle: saline); 6 of 6 under setting [9]; 3 of 6 under setting [5]; 3 of 6 under setting [8].
As to `CCOC(=O)COc1ccc(C=O)cc1`, under “dose: 200.0 mg/kg/injection, schedule: Q04DX003 (ip), vehicle: Klucel (hydroxypropylcellulose) (HPC)”, the survivor count is reported as 6 of 6.
Turning to `Cc1cc(C(C)(C)CC(C)(C)C)ccc1O`, the T/C (dose: 200.0 mg/kg/injection, schedule: Q01DX009 (sc), vehicle: olive oil, sesame oil, peanut oil) is 130 % of control.
For `CC1CCCC[N-]1.CC1CCCC[N-]1.[Cl][Pt+2][Cl]` (configuration not stated), under setting [3], the survivor count is 6 of 6.
For `CC[n+]1ccc(Nc2ccc(/C=C/c3ccc4cc(Nc5cc[n+](CC)cc5)ccc4[n+]3CC)cc2)cc1`, the T/C reads like this: (dose: 3.3 mg/kg/injection, schedule: Q04DX003 (ip), vehicle: saline) 129 % of control; (dose: 5.0 mg/kg/injection, schedule: Q04DX003 (ip), vehicle: saline) 133 % of control; (dose: 7.5 mg/kg/injection, schedule: Q04DX003 (ip), vehicle: saline) 129 % of control. Under “dose: 20.0 mg/kg/injection, schedule: Q01DX009 (ip), vehicle: saline”, the survivor count was 1 of 6.
Turning to `Cc1ccc(Cl)cc1O`, the survivor count is, setting by setting: under setting [2], 5 of 6; (dose: 300.0 mg/kg/injection, schedule: Q04DX003 (ip), vehicle: alcohol) 6 of 6; (dose: 450.0 mg/kg/injection, schedule: Q04DX003 (ip), vehicle: alcohol) 1 of 6. Further, the T/C (dose: 200.0 mg/kg/injection, schedule: Q04DX003 (ip), vehicle: alcohol) was 127 % of control.
